PubChem BioAssay AID1508597 | Cure First | 2020
Purpose: 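Knock-downs altering ovarian cancer cell survival with or without PARP inhibitor rucaparib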 (primary screen). System: human ovarian carcinoma lines grown from tumours: OCI-P5x (papillary serous) and OCI-C5x (clear cell). Knock-down reagent: siRNA pool against human genes, 1.25 pmol siRNA per well. Time to read-out: 72 h or 96 h, depending on the cell culture. Conditions: rucaparib 20 µM (about IC30) or vehicle, present until read-out. Rucaparib or vehicle: Rucaparib. Cell line: OCI-P5x (serous). Detection: 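Luminescent ATP-based viability assay read 72 or 96 h after transfection, depending on culture, given as normalised percent viability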. Scale: viability, normalised: higher = more viable cells remaining. Active means: 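Active when normalised viability falls below 80 percent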. Calls: active = viability under 80%; inactive = viability 80% or more.
Shown is an unselected part of the about 2,100 reagents, under one of the conditions tested. 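Calls flag viability under 80% in either arm, not effects specific to rucaparib; the reference for percent is not stated.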 Some reagents were tested in more than one well and are listed for each. No sequences are given here. Not stated in the record: the 100% reference.

gene	technical replicate	viability, normalised (%)	activity call
H4C4 (GeneID 8360)	1	39.2	active
H4C4 (GeneID 8360)	2	46.7	active
H4C4 (GeneID 8360)	3	52	active
ACTR8 (GeneID 93973)	1	37.1	active
ACTR8 (GeneID 93973)	2	43.6	active
ACTR8 (GeneID 93973)	3	58.4	active
NME1 (GeneID 4830)	1	120	inactive
NME1 (GeneID 4830)	1	45.2	active
NME1 (GeneID 4830)	2	116	inactive
NME1 (GeneID 4830)	2	42.4	active
NME1 (GeneID 4830)	3	40	active
NME1 (GeneID 4830)	3	100	inactive
RNF2 (GeneID 6045)	1	53.5	active
RNF2 (GeneID 6045)	2	54.3	active
RNF2 (GeneID 6045)	3	59.1	active
TSPYL1 (GeneID 7259)	1	65.4	active
TSPYL1 (GeneID 7259)	2	63	active
TSPYL1 (GeneID 7259)	3	55.4	active
SMC3 (GeneID 9126)	1	52.4	active
SMC3 (GeneID 9126)	2	60.3	active
SMC3 (GeneID 9126)	3	64.7	active
TDRKH (GeneID 11022)	1	73.8	active
TDRKH (GeneID 11022)	2	74.9	active
TDRKH (GeneID 11022)	3	72.7	active
